Laboratory results: PubChem BioAssay AID743255 (National Center for Advancing Translational Sciences (NCATS), 2014)
The campaign covered roughly 390,000 compounds. About 910 (0.23%) were called active. The inconclusive results got no clear call from the source; some entries with a clear call stand among them for comparison. Calls follow the shape of the dose curve; as a rule, active = well fitted inhibition curve with a large enough effect; inconclusive = small, poorly fitted or top-dose-only effect; inactive = no such curve, though single readings can be large or run the other way. Where the call is inconclusive, the potency comes from a doubtful curve fit.
Also: nearly all actives have a fitted effect of over 60% in size.
Potency is read from the fitted curve at half-maximal effect.

Protein sequences, listed by entry. Tags and fused reporters are not part of them. Lines headed by an entry give the natural chain unless they say otherwise; changes in a name come on top.
UniProt O94782: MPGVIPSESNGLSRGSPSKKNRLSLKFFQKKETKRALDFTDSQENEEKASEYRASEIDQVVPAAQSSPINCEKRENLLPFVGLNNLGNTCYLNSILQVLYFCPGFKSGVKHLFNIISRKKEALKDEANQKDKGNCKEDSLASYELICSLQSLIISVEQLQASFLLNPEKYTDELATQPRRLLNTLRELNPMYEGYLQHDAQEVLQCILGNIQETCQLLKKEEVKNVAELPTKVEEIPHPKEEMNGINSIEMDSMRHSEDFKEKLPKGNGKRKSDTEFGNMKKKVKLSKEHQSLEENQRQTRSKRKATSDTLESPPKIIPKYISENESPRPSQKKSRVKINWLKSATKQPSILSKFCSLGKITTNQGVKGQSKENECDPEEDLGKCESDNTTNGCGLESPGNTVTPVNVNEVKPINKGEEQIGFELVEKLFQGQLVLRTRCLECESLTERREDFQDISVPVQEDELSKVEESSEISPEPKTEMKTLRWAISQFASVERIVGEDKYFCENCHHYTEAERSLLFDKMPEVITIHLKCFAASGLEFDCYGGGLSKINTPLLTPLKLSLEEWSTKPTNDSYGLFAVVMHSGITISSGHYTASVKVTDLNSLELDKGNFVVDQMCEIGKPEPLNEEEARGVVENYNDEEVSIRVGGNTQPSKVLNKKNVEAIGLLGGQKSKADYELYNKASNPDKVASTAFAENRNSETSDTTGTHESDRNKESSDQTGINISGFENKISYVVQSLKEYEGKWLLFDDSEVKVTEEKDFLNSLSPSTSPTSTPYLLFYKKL

The compounds below were run against Ubiquitin carboxyl-terminal hydrolase 1 (Homo sapiens) (UniProt O94782) (assay: Inhibitors of USP1/UAF1: Primary Screen). Conditions: recombinant USP1/UAF1, Ub-Rhodamine cleavage fluorescence; series mostly up to 57.1 µM.
Procedure, shortened: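 In this screen, compounds sit with the deubiquitinase complex (1nM) for 15 min at room temperature before Ub-Rho is added at 150nM final. Fluorescence rise is then followed for 6 reads every 60 seconds.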
With O=C(CN(Cc1ccccc1)S(=O)(=O)c1ccc2c(c1)OCCO2)N/N=C/c1ccc(F)cc1 the Potency was inconclusive: 25.1 µM [inhibitor, partial curve].
For CCOC(=O)c1ccc(NC(=O)CSc2ccc(-c3sc(C)nc3C)nn2)cc1, the Potency was “inactive”.
With Cc1cnc(NC(=O)c2cncc(Br)c2)s1 the Potency was “inactive”.
O=[N+]([O-])c1ccc(N=Cc2ccc(Br)c([N+](=O)[O-])c2)cc1 was tested, and the Potency was “inactive”.
In the case of O=C1c2ccccc2C(=O)N1/N=C/c1ccc(Oc2ccc([N+](=O)[O-])cn2)cc1, the Potency is reported as inconclusive: 3.98 µM [inhibitor, single point].
In the case of NC1=Nc2cccc3cccc1c23, the Potency is reported as “inactive”.
O=C(NC1CC(=O)N(c2cccc(F)c2)C1)c1ccc(S(=O)(=O)N2CCOCC2)cc1 (stereo not given) was tested, and the Potency was inconclusive: 8.91 µM [inhibitor, partial curve, poor fit].
For Nc1cccc2c1C(=O)N(c1ccccc1)C2=O, the Potency was inconclusive: 1.78 µM [inhibitor, partial curve, poor fit].
For COc1ccc(N=Cc2c(O)n(-c3cccc(C)n3)c(=O)c3ccccc23)c(OC)c1, the Potency was “inactive”.
CCOC(=O)C1CCCN(CCC(=O)Nc2ccc3c(c2)CCC3)C1 (stereo not given) was tested, and the Potency was inconclusive: 5.62 µM [inhibitor, partial curve].
C[C@@H]1NC(=O)c2cc([N+](=O)[O-])cc(I)c2NCCCC[C@@H](C(N)=O)NC(=O)[C@H](CC(N)=O)NC1=O was tested, and the Potency was inconclusive: 22.4 µM [inhibitor, partial curve].
In the case of COc1ccc(NN=Nc2ccc([N+](=O)[O-])cc2)cc1, the Potency is reported as inconclusive: 35.5 µM [inhibitor, partial curve].
Cc1cccc(OCC(=O)Nc2ccccc2N2CCCCC2)c1 was tested, and the Potency was inconclusive: 44.7 µM [inhibitor, partial curve, poor fit].
For Nc1cccc(O)c1, the Potency was inconclusive: 79.4 µM [inhibitor, partial curve, poor fit].
In the case of COc1ccc(/C=C2\N=C(c3ccccc3)NNC2=O)cc1, the Potency is reported as inconclusive: 39.8 µM [inhibitor, partial curve].
O=C(c1cn(CCOc2ccccc2F)c2ccccc12)C1CCCCC1 was tested, and the Potency was inconclusive: 5.62 µM [inhibitor, partial curve].
With CCOc1ccc(NC(=S)N(CCc2c(C)[nH]c3ccccc23)Cc2ccco2)cc1 the Potency was inconclusive: 15.8 µM [inhibitor, partial curve, poor fit].
O=C(NNC1=C(C(=O)C(F)(F)F)CCC1)c1cccnc1 was tested, and the Potency was inconclusive: 2.24 µM [inhibitor, full curve, poor fit].
CCN(CC)C(=O)/C(=C/c1cn(S(=O)(=O)N(C)C)c2ccccc12)NC(=O)c1ccc(OC)cc1 was tested, and the Potency was inconclusive: 44.7 µM [inhibitor, partial curve].
With CCOC(=O)CNC(=O)C12CC3CC(CC(C3)C1)C2 the Potency was inconclusive: 1.41 µM [inhibitor, full curve].
CCCOc1ccc(C(=O)Nc2ccc(Cl)cn2)cc1 was tested, and the Potency was “inactive”.
CNc1ccc(Br)cc(C(=O)/C=C/c2cc(OC)ccc2OC)c1=O was tested, and the Potency was inconclusive: 28.2 µM [inhibitor, partial curve].
For CNc1c(NC(=O)COc2ccc(Cl)cc2)c(=O)oc2ccccc12, the Potency was “inactive”.
In the case of Cc1ccc(N2CCN(C(=O)CCc3c(C)nc4c(c3C)c(=O)n(C)c(=O)n4C)CC2)c(C)c1, the Potency is reported as inconclusive: 7.08 µM [inhibitor, partial curve].
In the case of O=C(O)c1cccc(Nc2ccc([N+](=O)[O-])cn2)c1, the Potency is reported as “inactive”.
With CCOC(=O)Nc1ccc2c(c1)N(C(=O)OC)c1ccccc1CC2 the Potency was “inactive”.
For Cc1ccc(-c2csc(N)n2)s1, the Potency was “inactive”.
In the case of O=C(Nc1cccc(Cl)c1)Nc1ccccc1OCc1cc(=O)n2ccccc2n1, the Potency is reported as inconclusive: 12.6 µM [inhibitor, partial curve, poor fit].
For Cc1c(Cc2ccc3c(c2)OCO3)sc(NC(=O)C2CC2)c1C(N)=O, the Potency was “inactive”.
For CCOC(CN=c1nc(N(C)C)ss1)OCC, the Potency was “inactive”.
With Cc1cc(O)c(C(C)C)cc1N=Cc1ccccc1O the Potency was inconclusive: 25.1 µM [inhibitor, partial curve].
CN(Cc1ccccc1)S(=O)(=O)c1ccc(S(=O)(=O)N(Cc2ccc(F)cc2)C2CCCC2)cc1 was tested, and the Potency was “inactive”.
Oc1cccc(Nc2c3ccccc3nc3ccccc23)c1 was tested, and the Potency was “inactive”.
With Cc1cccc(N2CCN(S(=O)(=O)c3ccc4c(c3)NC(=O)C(C)S4)CC2)c1C (stereo not given) the Potency was “inactive”.
In the case of Cn1c(C(=O)NC2CCCCC2)cc2sccc21, the Potency is reported as “inactive”.
In the case of N#Cc1ccsc1NC(=O)CCN1C(=O)C2CCCCC2C1=O (stereo not given), the Potency is reported as inconclusive: 50.1 µM [inhibitor, single point].
With CC(=O)Nc1ccc2c(c1)N(C(=O)CN(C)C)c1ccccc1CC2 the Potency was inconclusive: 25.1 µM [inhibitor, single point].
CCc1cccc2sc(N3CCN(C(=O)c4cc5ccccc5cc4OC)CC3)nc12 was tested, and the Potency was inconclusive: 35.5 µM [inhibitor, partial curve, poor fit].
For CC(C)CN1C(=O)c2ccc(NC(=O)c3ccco3)cc2C1=O, the Potency was inconclusive: 10 µM [inhibitor, single point].
With O=C(NCc1ccccc1Cl)C1CCN(S(=O)(=O)c2cccs2)CC1 the Potency was inconclusive: 0.562 µM [inhibitor, full curve, poor fit].
With CC(C)(C)NC(=O)COC(=O)c1ccccc1NC(=O)c1ccco1 the Potency was inconclusive: 15.8 µM [inhibitor, partial curve].
In the case of Nc1ccc(Cc2ccc(N)c(O)c2)cc1O, the Potency is reported as “inactive”.
With O=C(NC1CCCC1)C(c1ccccc1F)N(C(=O)c1csnn1)C1CC1 (stereo not given) the Potency was inconclusive: 35.5 µM [inhibitor, single point].
For CN1CCc2c(sc(NC(=O)c3ccc(S(=O)(=O)N4CCOCC4)cc3)c2C(N)=O)C1, the Potency was inconclusive: 44.7 µM [inhibitor, partial curve].
For CC1(C)CC(=O)C2=C(C1)N(Cc1ccco1)C(=O)NC2(C(F)(F)F)C(F)(F)F, the Potency was inconclusive: 35.5 µM [inhibitor, single point].
For Cc1c(-c2nn(C)c(=O)c3ccccc23)oc2ccc(F)cc2c1=O, the Potency was inconclusive: 14.1 µM [inhibitor, partial curve].
COc1cccc(CNC(=O)CSc2c3c(nc4ccc(Cl)cc24)CCCC3)c1OC was tested, and the Potency was “inactive”.
In the case of [N-]=C=C1C(=O)NC(=O)C([n+]2ccc(-c3ccncc3)cc2)C1c1ccccc1C(F)(F)F (stereo not given), the Potency is reported as inconclusive: 14.1 µM [inhibitor, partial curve, poor fit].
In the case of Oc1ccc(Br)cc1C=Nc1ccc(Cl)cc1, the Potency is reported as inconclusive: 50.1 µM [inhibitor, partial curve, poor fit].
For CC(NC(=O)c1cnccn1)c1ccc(S(N)(=O)=O)cc1 (stereo not given), the Potency was “inactive”.
In the case of C(C#CCCCCCCCCC[n+]1ccccc1)#CCCCCCCCCC[n+]1ccccc1, the Potency is reported as inconclusive: 1.58 µM [inhibitor, full curve, poor fit].
With CC(NCC(O)COC1CCC(C(C)(C)C)CC1)c1ccccc1 (stereo not given) the Potency was “inactive”.
With CSc1cccc(NC(=O)C2CCN(S(=O)(=O)c3ccc4c(c3)CCCN4C(=O)C3CCC3)CC2)c1 the Potency was inconclusive: 8.91 µM [inhibitor, single point].
CCOc1ccc2c(c1)sc1nc(=O)n(-c3ccc(Cl)c(Cl)c3)c(=O)n12 was tested, and the Potency was inconclusive: 5.62 µM [inhibitor, partial curve].
With C=CCn1c(=O)/c(=C/c2cc(OC)c(OC)c(OC)c2)s/c1=C(/C#N)c1nc2ccccc2n1C the Potency was inconclusive: 31.6 µM [inhibitor, single point].
For O=C(NC(NC(=O)c1c(F)cccc1F)c1ccc([N+](=O)[O-])cc1)c1c(F)cccc1F, the Potency was inconclusive: 4.47 µM [inhibitor, full curve, poor fit].
Cc1cccc(Cl)c1NC(=S)NN was tested, and the Potency was “inactive”.
For Cc1sc(NC(=O)c2cccc(N3C(=O)CCC3=O)c2)nc1-c1ccccc1, the Potency was inconclusive: 8.91 µM [inhibitor, partial curve].
For Oc1ccc2ccc3cccc[n+]3c2c1, the Potency was active: 28.2 µM.
Cc1ccc(C2CCN(C(=O)Nc3ccc(Cl)cc3)C2)cc1 (stereo not given) was tested, and the Potency was inconclusive: 7.94 µM [inhibitor, full curve, poor fit].
For Cc1c(Cl)cccc1NC(=O)CNS(=O)(=O)c1cccs1, the Potency was inconclusive: 0.282 µM [inhibitor, full curve].
COc1ccc(S(=O)(=O)N2CCN(Cc3ccc4c(c3)OCO4)CC2)cc1C was tested, and the Potency was inconclusive: 7.94 µM [inhibitor, single point].
CCc1ccc(NC(=S)NC2CC3CCCC(C2)N3Cc2cccs2)cc1 (stereo not given) was tested, and the Potency was “inactive”.
For O=C(C1CCCN(S(=O)(=O)c2ccc([N+](=O)[O-])cc2)C1)N1CCCCC1 (stereo not given), the Potency was inconclusive: 44.7 µM [inhibitor, partial curve].
For Cc1ccc(C(=O)Nc2ccccc2)cc1S(=O)(=O)Nc1ccc(Br)cc1, the Potency was inconclusive: 6.31 µM [inhibitor, partial curve].
O=C(CC1SC(=Nc2ccccc2)N(CCO)C1=O)Nc1ccccc1 (stereo not given) was tested, and the Potency was “inactive”.
For Cc1ccc(C(=O)N2CCc3cc(CNC(=O)c4ccc(Br)cc4)ccc32)cc1, the Potency was inconclusive: 0.282 µM [inhibitor, full curve, poor fit].
In the case of Cn1cc(Cl)c(C(=O)Nc2nc3ccccc3s2)n1, the Potency is reported as inconclusive: 3.16 µM [inhibitor, partial curve].
Cc1cccc(NC(=O)c2ccc3c(O)c(S(=O)(=O)c4ccccc4)c(=O)[nH]c3c2)c1C was tested, and the Potency was “inactive”.
For CCCN(CCC)CC(O)COc1ccc2c(c1)OCO2 (stereo not given), the Potency was “inactive”.
